Reference: patent publication US20190359698A1
No constants are given. Whether binding was seen depends on the method and setting. Some entries that bind do so weakly or less than the wild type.

Biological target: GPC3 N-terminal fragment (polypeptide consisting of the amino acid sequence represented by SEQ ID NO: 155) (human) (UniProt P09619)
Assay: FCM of IgG on GPC3 N-terminal fragment-expressing cell line

B1: IgG clone TF1413-03e004 (antibody, V domains shown)
VH: QVQLKQSGAELVKPGAPVKLSCKASGYTFTSYWMNWVKQRPGRGLEWIGRIDPSDSETHYNQKFKDKATLTVDKSSSTAYIQLSSLTSEDSAVYYCARGYYGSNYWGQGTTLTVSS
VL: DIKMTQSPKFMSTSVGDRVSVTCKASQNVGTNVAWYQQKPGQSPKALIYSASYRYSGVPDRFTGSGSGTDFTLTISNVQSEDLAEYFCQQYNSYPLTFGAGTKLELKR
binding: binds
